PubChem BioAssay AID1224829 | NIAID | 2016

Aim: 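Genes needed for LPS-driven NF-kappaB p65 nuclear entry in mouse macrophages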 (follow-up of hits)
System: mouse RAW264.7 G9 macrophage reporter cells
Knock-down reagent: single siRNA against mouse genes, 100 nM
Time to read-out: 2 days of siRNA knock-down, then 40 min of LPS before fixing
Treatment: LPS (Salmonella minnesota R595) at 10 ng/ml
Measurement: 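High-content images after 40 min LPS exposure; GFP-p65 nucleus to surrounding ring signal ratio, normalised to plate median and non-targeting control wells, expressed as z-score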
Scale: p65 translocation z-score: higher = more nuclear NF-kappaB p65 after LPS
Hit rule: 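Active means the replicate-mean z-score lies beyond plus or minus 2, in either direction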
Meaning of the calls: active = changed p65 translocation (either direction); inactive = no clear change
In all, the deposit lists about 3,800 reagents; shown is a random part of them. 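Calls cover raised and lowered translocation; gene median uses one vendor's three siRNAs; qiagen siRNAs acted more weakly than ambion siRNAs.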 Unmarked entries are inactive. Further read-outs or replicates are left out here. Reagent sequences are not shown.

H2-K1 [SID315484275], siRNA vendor or control pool ambion single siRNA
- p65 translocation z-score, replicate mean: 0.186

H2-K1 [SID315484276], siRNA vendor or control pool ambion single siRNA
- p65 translocation z-score, replicate mean: -0.709

H2-K1 [SID315484277], siRNA vendor or control pool ambion single siRNA
- p65 translocation z-score, replicate mean: -11.5 (active)

H2-K1 [SID315484278], siRNA vendor or control pool qiagen single siRNA
- p65 translocation z-score, replicate mean: -0.0187

H2-K1 [SID315484279], siRNA vendor or control pool qiagen single siRNA
- p65 translocation z-score, replicate mean: -1.19

H2-K1 [SID315484280], siRNA vendor or control pool qiagen single siRNA
- p65 translocation z-score, replicate mean: -2.19 (active)

Or2h1 [SID315488646], siRNA vendor or control pool ambion single siRNA
- p65 translocation z-score, replicate mean: -2.27 (active)

Or2h1 [SID315488647], siRNA vendor or control pool ambion single siRNA
- p65 translocation z-score, replicate mean: -0.824

Or2h1 [SID315488648], siRNA vendor or control pool ambion single siRNA
- p65 translocation z-score, replicate mean: -0.0325

Or2h1 [SID315488649], siRNA vendor or control pool qiagen single siRNA
- p65 translocation z-score, replicate mean: 0.0743

Or2h1 [SID315488650], siRNA vendor or control pool qiagen single siRNA
- p65 translocation z-score, replicate mean: -0.525

Or2h1 [SID315488651], siRNA vendor or control pool qiagen single siRNA
- p65 translocation z-score, replicate mean: 0.923

Ephx2 [SID315484104], siRNA vendor or control pool ambion single siRNA
- p65 translocation z-score, replicate mean: -0.317

Ephx2 [SID315484105], siRNA vendor or control pool ambion single siRNA
- p65 translocation z-score, replicate mean: -2.09 (active)

Ephx2 [SID315484106], siRNA vendor or control pool ambion single siRNA
- p65 translocation z-score, replicate mean: -2.38 (active)

Ephx2 [SID315484107], siRNA vendor or control pool qiagen single siRNA
- p65 translocation z-score, replicate mean: 1.45

Ephx2 [SID315484108], siRNA vendor or control pool qiagen single siRNA
- p65 translocation z-score, replicate mean: -2.59 (active)

Ephx2 [SID315484109], siRNA vendor or control pool qiagen single siRNA
- p65 translocation z-score, replicate mean: -2.08 (active)

Fabp6 [SID315484410], siRNA vendor or control pool ambion single siRNA
- p65 translocation z-score, replicate mean: -1.49

Fabp6 [SID315484411], siRNA vendor or control pool ambion single siRNA
- p65 translocation z-score, replicate mean: 1.32

Fabp6 [SID315484412], siRNA vendor or control pool ambion single siRNA
- p65 translocation z-score, replicate mean: -0.976

Fabp6 [SID315484413], siRNA vendor or control pool qiagen single siRNA
- p65 translocation z-score, replicate mean: 1.72

Fabp6 [SID315484414], siRNA vendor or control pool qiagen single siRNA
- p65 translocation z-score, replicate mean: -1.39

Fabp6 [SID315484415], siRNA vendor or control pool qiagen single siRNA
- p65 translocation z-score, replicate mean: -1.46

Dap3 [SID315486297], siRNA vendor or control pool ambion single siRNA
- p65 translocation z-score, replicate mean: 0.131

Dap3 [SID315486298], siRNA vendor or control pool ambion single siRNA
- p65 translocation z-score, replicate mean: 0.457

Dap3 [SID315486299], siRNA vendor or control pool ambion single siRNA
- p65 translocation z-score, replicate mean: -4.59 (active)

Dap3 [SID315486300], siRNA vendor or control pool qiagen single siRNA
- p65 translocation z-score, replicate mean: 0.755

Dap3 [SID315486301], siRNA vendor or control pool qiagen single siRNA
- p65 translocation z-score, replicate mean: 0.891

Dap3 [SID315486302], siRNA vendor or control pool qiagen single siRNA
- p65 translocation z-score, replicate mean: 1.43

Not a retest: entries from further up.
Ephx2 [SID315484109], siRNA vendor or control pool qiagen single siRNA
- p65 translocation z-score, replicate mean: -2.08 (active)

Fabp6 [SID315484410], siRNA vendor or control pool ambion single siRNA
- p65 translocation z-score, replicate mean: -1.49

Fabp6 [SID315484411], siRNA vendor or control pool ambion single siRNA
- p65 translocation z-score, replicate mean: 1.32
